Literature values in patent US20130337020A1, “Pharmaceutical Compositions” (Alpharma Pharmaceuticals LLC, priority 2006, published 2013).

Settings: hydrochloride salt; cited from earlier work

Q: For `O=C1CC[C@@]2(O)[C@H]3Cc4ccc(O)c5c4[C@@]2(CCN3CC2CC2)[C@H]1O5` [naltrexone], which solubility in water is on record?
A: about 100 mg/cc
